Key:
BSC‐40 cells = test: Cytotoxicity, MTT reduction assay; type: cell-based; details: CC50 divided by MIC
Procedure: (§1) The cytotoxicity of active compounds to mammalian cells was assessed using the MTT reduction assay (Mosmann, 1983). Vero and BSC‐40 cells were seeded in 96‐well plates (8 × 10^4 cells per well) and incubated at 37°C and 5% CO2 atmosphere. After 24 hr of incubation, 200 μL of fresh medium containing a serial dilution of compounds (10–1.25 μg/ml) were added to the plates. After 48 hr of incubation in the same conditions, 100 μL of MTT solution in MEM or DMEM (5 mg/ml) was added to each well and incubated for 3 hr at 37°C and 5% CO2 atmosphere. The medium was removed and 100 μL of DMSO was used to solubilize formazan crystals. Absorbance at 570 nm of each well was read using a spectrophotometer (VersaMax, Molecular Devices).

Vero cells = test: Cytotoxicity, MTT reduction assay; type: cell-based; details: CC50 divided by MIC
Procedure: as §1

S. aureus ATCC 29212 = test: MBC, plating of wells without growth; type: cell-based, Staphylococcus aureus; details: ratio in parentheses
Procedure: (§2) After incubation at 35°C for 24 hr, the colonies were counted and the percentage of inhibition was calculated. MBC is defined as the lowest compound's concentration that inhibits at least 99.9% of the bacterial cell count compared to nontreated viability control (Clinical and Laboratory Standards Institute, 1999).

E. faecalis ATCC 29213 = test: MBC, plating of wells without growth; type: cell-based, Enterococcus faecalis; details: ratio in parentheses
Procedure: as §2

SMILES: NC(COc1cccc2ccccc12)COc1cccc2ccccc12 [CPD20]
- SI Staphylococcus aureus (BSC‐40 cells): 1.0
- SI Streptococcus pyogenes (BSC‐40 cells): 1.0
- SI Enterococcus faecalis (Vero cells): 0.76
- SI MRSA ATCC 43300 (Vero cells): 1.52
- SI Staphylococcus aureus (Vero cells): 1.52
- SI Streptococcus pyogenes (Vero cells): 1.52
- SI Strain 5749 (Vero cells; MRSA): 1.52
- SI Strain 5912 (Vero cells; MRSA): 1.52
- SI Strain 6100 (Vero cells; MRSA): 1.52
- SI Strain 6154 (Vero cells; MRSA): 1.52
- SI Strain 6613 (Vero cells; MRSA): 1.52
- MBC/MIC S. aureus ATCC 29212 (S. aureus ATCC 29212): 4.0
- MBC/MIC E. faecalis ATCC 29213 (E. faecalis ATCC 29213): 2.0
